Measured values taken from the supplement of paper PMC10849652.
This is one part of the list.

Amino acid sequences for entries named in this document (tags omitted). A change or cut given only in a name is not applied to a line headed by its entry.
UniProt Q9H2H9: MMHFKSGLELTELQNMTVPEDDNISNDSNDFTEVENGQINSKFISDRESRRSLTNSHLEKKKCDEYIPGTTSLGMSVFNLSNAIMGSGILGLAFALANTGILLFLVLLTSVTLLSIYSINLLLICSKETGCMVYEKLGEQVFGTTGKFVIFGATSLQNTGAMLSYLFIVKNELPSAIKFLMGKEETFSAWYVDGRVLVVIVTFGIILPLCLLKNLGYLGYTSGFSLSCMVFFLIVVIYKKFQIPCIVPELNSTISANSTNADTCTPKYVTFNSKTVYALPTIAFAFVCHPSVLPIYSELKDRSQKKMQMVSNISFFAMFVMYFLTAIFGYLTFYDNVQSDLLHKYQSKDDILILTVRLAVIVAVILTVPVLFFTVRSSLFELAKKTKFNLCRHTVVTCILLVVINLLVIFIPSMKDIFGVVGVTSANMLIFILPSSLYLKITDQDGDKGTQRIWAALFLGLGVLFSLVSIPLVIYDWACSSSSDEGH
UniProt Q6NT16: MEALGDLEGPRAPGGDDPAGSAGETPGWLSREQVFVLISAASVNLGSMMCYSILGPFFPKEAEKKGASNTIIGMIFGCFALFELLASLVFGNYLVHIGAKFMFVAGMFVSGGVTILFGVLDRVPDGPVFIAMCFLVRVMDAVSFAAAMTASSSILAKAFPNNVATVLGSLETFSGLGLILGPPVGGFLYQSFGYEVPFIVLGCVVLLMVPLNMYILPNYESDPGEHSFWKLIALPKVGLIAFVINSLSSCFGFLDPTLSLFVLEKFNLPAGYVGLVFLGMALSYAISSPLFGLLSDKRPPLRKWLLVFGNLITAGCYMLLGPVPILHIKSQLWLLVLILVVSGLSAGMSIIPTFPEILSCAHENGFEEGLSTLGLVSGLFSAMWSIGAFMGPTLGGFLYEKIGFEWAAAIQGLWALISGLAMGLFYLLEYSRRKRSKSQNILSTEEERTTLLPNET
UniProt P16260: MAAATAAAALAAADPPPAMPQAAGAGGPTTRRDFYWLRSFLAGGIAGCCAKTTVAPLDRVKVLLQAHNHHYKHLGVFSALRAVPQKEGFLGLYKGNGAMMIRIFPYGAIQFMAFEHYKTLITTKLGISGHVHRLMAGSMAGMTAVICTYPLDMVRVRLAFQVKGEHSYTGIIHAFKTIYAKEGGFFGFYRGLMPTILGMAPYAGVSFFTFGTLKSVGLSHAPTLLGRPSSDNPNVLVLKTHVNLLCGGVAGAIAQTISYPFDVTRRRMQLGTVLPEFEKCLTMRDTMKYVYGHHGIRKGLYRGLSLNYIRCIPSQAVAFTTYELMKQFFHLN
UniProt Q9H0C2: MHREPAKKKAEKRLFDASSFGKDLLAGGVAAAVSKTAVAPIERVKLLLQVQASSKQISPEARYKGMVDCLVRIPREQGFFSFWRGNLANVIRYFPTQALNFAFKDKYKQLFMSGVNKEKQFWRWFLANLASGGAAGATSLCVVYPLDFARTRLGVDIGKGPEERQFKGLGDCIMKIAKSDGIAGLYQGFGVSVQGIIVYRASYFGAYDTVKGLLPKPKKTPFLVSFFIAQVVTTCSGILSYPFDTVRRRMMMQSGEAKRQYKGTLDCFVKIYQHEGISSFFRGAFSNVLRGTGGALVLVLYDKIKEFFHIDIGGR
UniProt P05141: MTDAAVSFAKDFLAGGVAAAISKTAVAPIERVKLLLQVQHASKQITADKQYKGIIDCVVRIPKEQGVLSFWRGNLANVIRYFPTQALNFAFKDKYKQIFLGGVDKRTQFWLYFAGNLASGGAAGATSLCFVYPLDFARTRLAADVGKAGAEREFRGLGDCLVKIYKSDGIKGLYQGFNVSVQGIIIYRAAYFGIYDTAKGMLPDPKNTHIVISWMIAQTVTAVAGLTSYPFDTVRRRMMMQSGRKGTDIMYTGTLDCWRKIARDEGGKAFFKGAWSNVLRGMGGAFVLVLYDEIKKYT
UniProt Q8NBI5: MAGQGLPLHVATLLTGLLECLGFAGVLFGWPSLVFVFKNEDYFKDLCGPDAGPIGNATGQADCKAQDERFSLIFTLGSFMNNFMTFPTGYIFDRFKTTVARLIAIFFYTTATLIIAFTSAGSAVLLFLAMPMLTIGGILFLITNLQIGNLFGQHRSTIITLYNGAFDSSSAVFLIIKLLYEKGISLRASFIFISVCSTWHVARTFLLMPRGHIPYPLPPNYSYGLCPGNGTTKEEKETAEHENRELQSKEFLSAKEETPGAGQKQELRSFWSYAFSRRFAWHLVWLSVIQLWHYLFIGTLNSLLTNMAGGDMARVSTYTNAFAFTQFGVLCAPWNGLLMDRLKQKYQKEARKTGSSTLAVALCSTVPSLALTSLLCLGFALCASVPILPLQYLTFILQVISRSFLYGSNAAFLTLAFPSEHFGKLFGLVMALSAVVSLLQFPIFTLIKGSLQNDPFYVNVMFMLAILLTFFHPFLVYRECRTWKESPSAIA
UniProt P53794: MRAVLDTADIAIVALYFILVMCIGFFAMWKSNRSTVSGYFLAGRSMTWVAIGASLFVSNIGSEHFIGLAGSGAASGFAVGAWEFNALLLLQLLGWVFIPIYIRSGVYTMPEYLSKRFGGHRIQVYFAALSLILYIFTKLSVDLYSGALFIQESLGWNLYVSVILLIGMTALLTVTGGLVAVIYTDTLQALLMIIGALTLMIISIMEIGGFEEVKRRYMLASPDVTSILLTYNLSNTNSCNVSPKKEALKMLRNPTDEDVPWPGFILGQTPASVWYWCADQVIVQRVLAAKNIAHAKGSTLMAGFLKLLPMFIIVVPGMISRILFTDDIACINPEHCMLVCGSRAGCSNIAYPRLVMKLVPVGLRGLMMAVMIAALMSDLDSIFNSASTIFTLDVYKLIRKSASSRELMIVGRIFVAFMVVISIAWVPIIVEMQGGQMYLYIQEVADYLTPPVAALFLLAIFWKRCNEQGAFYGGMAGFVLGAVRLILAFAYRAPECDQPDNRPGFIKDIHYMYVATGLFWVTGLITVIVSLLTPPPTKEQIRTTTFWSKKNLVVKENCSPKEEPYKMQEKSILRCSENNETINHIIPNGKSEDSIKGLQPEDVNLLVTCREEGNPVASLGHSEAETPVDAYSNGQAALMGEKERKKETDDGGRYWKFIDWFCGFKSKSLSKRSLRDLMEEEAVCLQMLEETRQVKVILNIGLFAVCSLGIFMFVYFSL
UniProt Q9BV35: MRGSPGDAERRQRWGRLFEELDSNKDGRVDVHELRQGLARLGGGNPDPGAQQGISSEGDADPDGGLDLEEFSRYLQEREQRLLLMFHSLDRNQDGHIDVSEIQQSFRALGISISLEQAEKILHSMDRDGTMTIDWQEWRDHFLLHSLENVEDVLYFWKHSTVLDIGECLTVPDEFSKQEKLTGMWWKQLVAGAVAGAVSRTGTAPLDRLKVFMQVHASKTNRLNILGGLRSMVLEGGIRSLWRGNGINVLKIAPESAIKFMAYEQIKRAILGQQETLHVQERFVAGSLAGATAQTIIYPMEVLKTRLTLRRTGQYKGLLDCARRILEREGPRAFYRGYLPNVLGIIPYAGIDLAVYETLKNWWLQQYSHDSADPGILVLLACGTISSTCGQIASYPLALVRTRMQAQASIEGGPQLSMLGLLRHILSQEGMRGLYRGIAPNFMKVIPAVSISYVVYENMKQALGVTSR
UniProt P08195: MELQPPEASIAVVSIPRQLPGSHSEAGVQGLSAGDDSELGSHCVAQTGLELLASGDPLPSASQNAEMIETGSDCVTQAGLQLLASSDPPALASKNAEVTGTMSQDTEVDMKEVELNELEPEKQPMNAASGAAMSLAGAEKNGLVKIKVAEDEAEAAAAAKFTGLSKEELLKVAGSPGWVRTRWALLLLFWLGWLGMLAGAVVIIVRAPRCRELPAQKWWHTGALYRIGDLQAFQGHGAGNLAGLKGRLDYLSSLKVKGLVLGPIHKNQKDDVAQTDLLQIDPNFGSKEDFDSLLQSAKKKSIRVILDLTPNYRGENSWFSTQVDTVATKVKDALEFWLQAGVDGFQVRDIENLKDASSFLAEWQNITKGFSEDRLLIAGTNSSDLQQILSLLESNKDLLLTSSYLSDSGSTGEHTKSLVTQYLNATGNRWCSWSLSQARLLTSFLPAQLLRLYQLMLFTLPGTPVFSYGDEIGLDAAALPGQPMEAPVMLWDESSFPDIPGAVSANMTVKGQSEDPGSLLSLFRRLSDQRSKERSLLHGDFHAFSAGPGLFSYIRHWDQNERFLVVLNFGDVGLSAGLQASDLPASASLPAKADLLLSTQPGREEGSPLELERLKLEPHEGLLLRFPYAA
UniProt L0R6Q1: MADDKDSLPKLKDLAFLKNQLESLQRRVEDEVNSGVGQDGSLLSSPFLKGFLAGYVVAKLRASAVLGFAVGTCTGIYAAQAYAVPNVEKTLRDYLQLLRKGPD
UniProt Q8IXU6: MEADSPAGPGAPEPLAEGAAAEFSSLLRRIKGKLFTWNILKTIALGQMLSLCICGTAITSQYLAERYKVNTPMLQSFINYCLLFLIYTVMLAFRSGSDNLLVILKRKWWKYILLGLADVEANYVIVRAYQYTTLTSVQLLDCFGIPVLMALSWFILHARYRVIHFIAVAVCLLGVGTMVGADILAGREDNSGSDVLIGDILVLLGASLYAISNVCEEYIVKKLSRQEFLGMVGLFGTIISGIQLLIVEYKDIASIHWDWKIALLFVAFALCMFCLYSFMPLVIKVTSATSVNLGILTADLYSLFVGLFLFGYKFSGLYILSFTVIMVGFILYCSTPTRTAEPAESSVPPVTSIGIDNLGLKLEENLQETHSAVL
UniProt P11169: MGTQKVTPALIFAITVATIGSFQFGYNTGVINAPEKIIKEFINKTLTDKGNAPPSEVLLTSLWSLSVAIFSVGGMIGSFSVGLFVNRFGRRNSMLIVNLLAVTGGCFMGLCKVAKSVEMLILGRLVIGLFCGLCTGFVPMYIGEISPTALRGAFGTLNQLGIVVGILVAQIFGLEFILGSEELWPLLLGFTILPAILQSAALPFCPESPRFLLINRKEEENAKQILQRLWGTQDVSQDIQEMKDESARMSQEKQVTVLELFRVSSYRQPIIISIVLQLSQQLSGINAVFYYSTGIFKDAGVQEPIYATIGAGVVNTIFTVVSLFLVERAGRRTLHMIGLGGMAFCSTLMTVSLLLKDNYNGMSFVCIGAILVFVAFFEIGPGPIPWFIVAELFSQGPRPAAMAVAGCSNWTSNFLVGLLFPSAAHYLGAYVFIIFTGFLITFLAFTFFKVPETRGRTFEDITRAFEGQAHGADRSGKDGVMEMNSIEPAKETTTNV
UniProt Q02978: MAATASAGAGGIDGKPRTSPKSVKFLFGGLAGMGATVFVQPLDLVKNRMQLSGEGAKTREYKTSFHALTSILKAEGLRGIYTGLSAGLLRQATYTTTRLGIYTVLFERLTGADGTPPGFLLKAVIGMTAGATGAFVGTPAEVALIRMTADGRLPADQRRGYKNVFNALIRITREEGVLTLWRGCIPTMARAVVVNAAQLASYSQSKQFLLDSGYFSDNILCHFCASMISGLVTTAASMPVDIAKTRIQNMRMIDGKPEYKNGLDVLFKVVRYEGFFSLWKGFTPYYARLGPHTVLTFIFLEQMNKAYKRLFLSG
UniProt Q6KCM7: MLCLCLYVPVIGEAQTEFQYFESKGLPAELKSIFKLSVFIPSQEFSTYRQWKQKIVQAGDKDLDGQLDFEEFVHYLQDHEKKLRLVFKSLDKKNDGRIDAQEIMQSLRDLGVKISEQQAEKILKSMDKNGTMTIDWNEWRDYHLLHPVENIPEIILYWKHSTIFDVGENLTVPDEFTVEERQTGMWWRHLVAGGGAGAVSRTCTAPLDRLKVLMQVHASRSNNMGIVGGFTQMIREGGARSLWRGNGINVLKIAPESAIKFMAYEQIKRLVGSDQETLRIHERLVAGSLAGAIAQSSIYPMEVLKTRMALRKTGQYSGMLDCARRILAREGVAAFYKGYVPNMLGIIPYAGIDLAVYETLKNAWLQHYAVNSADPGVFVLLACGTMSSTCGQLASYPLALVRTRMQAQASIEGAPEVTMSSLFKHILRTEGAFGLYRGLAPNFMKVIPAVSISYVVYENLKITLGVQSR
UniProt O75387: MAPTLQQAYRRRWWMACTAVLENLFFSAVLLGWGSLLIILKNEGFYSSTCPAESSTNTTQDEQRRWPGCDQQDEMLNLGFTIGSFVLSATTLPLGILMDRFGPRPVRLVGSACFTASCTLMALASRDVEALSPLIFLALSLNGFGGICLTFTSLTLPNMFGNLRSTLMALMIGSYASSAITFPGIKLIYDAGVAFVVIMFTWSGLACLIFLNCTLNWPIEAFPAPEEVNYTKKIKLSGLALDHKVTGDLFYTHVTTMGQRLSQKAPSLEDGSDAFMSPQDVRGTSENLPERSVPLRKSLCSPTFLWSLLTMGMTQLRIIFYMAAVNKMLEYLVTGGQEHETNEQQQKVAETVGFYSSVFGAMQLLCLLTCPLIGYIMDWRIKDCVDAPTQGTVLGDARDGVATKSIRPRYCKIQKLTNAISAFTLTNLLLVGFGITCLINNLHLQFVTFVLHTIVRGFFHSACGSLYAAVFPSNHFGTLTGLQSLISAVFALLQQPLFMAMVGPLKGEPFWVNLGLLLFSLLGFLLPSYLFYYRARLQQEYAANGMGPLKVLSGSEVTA

What was measured:
Experiment in all cases: log2 fold change, soluble protein after heating vs DMSO (PISA); higher = thermal stabilisation; K562 cells, 10 uM, 30 min; active = over 0.2 and 3.5 SD of the protein, either way, in both replicates (recomputed)
[1] = compound: COC1=CC=C(C=C1)CN2C=CC3=C2C=C(C=C3)C(=O)NO
Summary of the method: (§1)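 Thermal stability values are relative to control samples and come from duplicates. They are expressed as log2 fold changes. For measurement, K562 cells (2×10^6 cells/mL) received 10 μM compound for 30 min, and aliquots were heated for 3 min over 48°C-58°C, pooled, and extracted at 4°C in PBS with 0.5% NP-40. Soluble protein, the supernatant after 21,000xg for 90 min, was quantified by TMTpro 16plex LC-MS/MS with equalised channel sums.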

[2] = compound: CON(C)C(=O)N1N=C(c2cc(F)ccc2F)S[C@@]1(CCCN)c1ccccc1 [filanesib]
Summary of the method: as §1

[3] = compound: CO[C@H]1C[C@@H]2CC[C@@H](C)[C@@](O)(O2)C(=O)C(=O)N2CCCC[C@H]2C(=O)O[C@H]([C@H](C)C[C@@H]2CC[C@H](n3cnnn3)[C@H](OC)C2)CC(=O)[C@H](C)/C=C(\C)[C@@H](O)[C@@H](OC)C(=O)[C@H](C)C[C@H](C)/C=C/C=C/C=C/1C [zotarolimus]
Summary of the method: as §1

[4] = compound: COc1cc(C(=O)O)ccc1NC(=O)[C@@H]1N[C@@H](CC(C)(C)C)[C@](C#N)(c2ccc(Cl)cc2F)[C@H]1c1cccc(Cl)c1F [idasanutlin]
Summary of the method: as §1

[5] = compound: COc1cc(Nc2ncc3c(n2)-c2ccc(Cl)cc2C(c2c(F)cccc2OC)=NC3)ccc1C(=O)O [alisertib]
Summary of the method: as §1

[6] = compound: COc1cc2nc(-c3cc(F)ccc3O)nc(N[C@@H]3CNC[C@H]3C(C)(C)O)c2cc1OC
Summary of the method: as §1

[7] = compound: COc1cc2ncnc(Nc3ccc(F)c(Cl)c3)c2cc1OCCCN1CCOCC1 [gefitinib]
Summary of the method: as §1

[8] = compound: COc1cccc2cc(-c3nc([C@H]4CC[C@H](C(=O)O)CC4)n4ncnc(N)c34)[nH]c12
Summary of the method: as §1

[9] = compound: CS(=O)(=O)CCNCc1ccc(-c2ccc3ncnc(Nc4ccc(OCc5cccc(F)c5)c(Cl)c4)c3c2)o1 [lapatinib]
Summary of the method: as §1

[10] = compound: CS(=O)(=O)N1CCN(Cc2cc3nc(-c4cccc5[nH]ncc45)nc(N4CCOCC4)c3s2)CC1 [pictilisib]
Summary of the method: as §1

Measured: log2 fold change

SLC38A1 (UniProt Q9H2H9)
inactive: [1] -0.081 | [2] -0.037 | [3] -0.036 | [4] -0.096 | [5] -0.034 | [6] -0.09 | [7] -0.005 | [8] 0.019 | [9] -0.001 | [10] -0.064

SLC25A17 (UniProt O43808)
inactive: [1] 0.153 | [2] -0.036 | [3] 0.022 | [4] -0.099 | [5] -0.077 | [6] -0.083 | [7] -0.002 | [8] 0.034 | [9] 0.095 | [10] -0.107

SLBP (UniProt Q14493)
inactive: [1] -0.148 | [2] -0.035 | [3] 0.112 | [4] 0.224 | [5] -0.152 | [6] -0.199 | [7] 0.034 | [8] 0.077 | [9] 0.004 | [10] 0.05

SLC30A1 (UniProt Q9Y6M5)
inactive: [1] 0.05 | [2] 0.069 | [3] -0.032 | [4] 0.048 | [5] -0.115 | [6] 0.061 | [7] 0.025 | [8] 0.063 | [9] -0.002 | [10] 0.038

2 consecutive records out of the list so far:
SLC38A1 (UniProt Q9H2H9)
inactive: [1] -0.081 | [2] -0.037 | [3] -0.036 | [4] -0.096 | [5] -0.034 | [6] -0.09 | [7] -0.005 | [8] 0.019 | [9] -0.001 | [10] -0.064

SLC25A17 (UniProt O43808)
inactive: [1] 0.153 | [2] -0.036 | [3] 0.022 | [4] -0.099 | [5] -0.077 | [6] -0.083 | [7] -0.002 | [8] 0.034 | [9] 0.095 | [10] -0.107

The listing continues.

SLC29A3 (UniProt Q9BZD2)
inactive: [1] 0.009 | [2] -0.258 | [3] -0.015 | [4] -0.113 | [5] 0 | [6] -0.08 | [7] -0.08 | [8] 0.019 | [9] -0.118

SLC1A5 (UniProt Q15758)
inactive: [1] -0.048 | [2] 0.071 | [3] -0.052 | [4] 0.031 | [5] -0.126 | [6] 0.058 | [7] 0.023 | [8] 0.095 | [9] -0.01 | [10] 0.024

SLC18B1 (UniProt Q6NT16)
inactive: [1] 0.072 | [2] -0.094 | [3] -0.068 | [4] 0.083 | [5] 0.022 | [6] 0.058 | [7] 0.01 | [8] 0.087 | [9] -0.061 | [10] 0.067

SLC25A16 (UniProt P16260)
inactive: [1] 0.04 | [2] 0.054 | [3] -0.012 | [4] 0.05 | [5] -0.164 | [6] -0.055 | [7] -0.036 | [8] -0.053 | [9] 0.001 | [10] -0.323

SLC25A31 (UniProt Q9H0C2)
inactive: [1] 0.055 | [2] -0.101 | [3] -0.022 | [4] -0.046 | [5] 0.002 | [6] -0.009 | [7] 0.008 | [8] 0.053 | [9] 0.036 | [10] 0.002

SLC25A5 (UniProt P05141)
inactive: [1] -0.024 | [2] -0.011 | [3] 0.198 | [4] 0.086 | [5] 0.006 | [6] -0.037 | [7] -0.023 | [8] -0.017 | [9] -0.059 | [10] -0.043

SLC43A3 isoform 2 (UniProt Q8NBI5)
inactive: [1] -0.003 | [2] 0.026 | [3] -0.026 | [4] 0.072 | [5] -0.071 | [6] 0.045 | [7] 0.025 | [8] 0.105 | [9] -0.017 | [10] 0.015

SLC39A7 (UniProt Q92504)
inactive: [1] -0.004 | [2] 0.027 | [3] 0.009 | [4] -0.01 | [5] -0.033 | [6] -0.051 | [7] 0.031 | [8] 0.056 | [9] -0.071 | [10] 0.004

SLC30A9 (UniProt Q6PML9)
inactive: [1] 0.01 | [2] -0.014 | [3] 0.047 | [4] 0.036 | [5] 0.057 | [6] -0.015 | [7] -0.003 | [8] 0.123 | [9] 0.022 | [10] 0.072

SLC5A3 (UniProt P53794)
inactive: [1] 0.05 | [2] 0.037 | [3] -0.03 | [4] 0.007 | [5] -0.122 | [6] 0.042 | [7] 0.035 | [8] 0.116 | [9] -0.105 | [10] 0.017

SLC25A23 isoform 3 (UniProt Q9BV35)
inactive: [1] 0.099 | [2] 0.087 | [3] -0.055 | [4] -0.002 | [5] 0.077 | [6] -0.021 | [7] 0 | [8] 0.119 | [9] 0.019 | [10] 0.06

SLC30A7 (UniProt Q8NEW0)
inactive: [1] -0.105 | [2] -0.086 | [3] -0.025 | [4] -0.121 | [5] -0.019 | [6] 0.088 | [7] 0.017 | [8] 0.184 | [9] -0.013 | [10] 0.028

SLC3A2 isoform 3 (UniProt P08195)
inactive: [1] 0.018 | [2] 0.019 | [3] -0.015 | [4] 0.005 | [5] -0.084 | [6] 0.017 | [7] 0.024 | [8] 0.027 | [9] 0.011 | [10] 0.004

SLC6A8 (UniProt P48029)
inactive: [1] 0.067 | [2] -0.063 | [3] -0.121 | [4] -0.017 | [5] 0.047 | [6] 0.197 | [7] -0.102 | [8] -0.113 | [9] -0.016 | [10] 0.115

SLC40A1 (UniProt Q9NP59)
inactive: [1] 0.032 | [2] -0.098 | [3] 0.009 | [4] 0.035 | [5] -0.05 | [6] 0.006 | [7] 0.024 | [8] 0.124 | [9] -0.146 | [10] 0.03

SLC35A4 (UniProt L0R6Q1)
inactive: [1] -0.044 | [2] -0.02 | [3] -0.085 | [4] 0.074 | [5] -0.055 | [6] -0.055 | [7] 0.058 | [8] 0.072 | [9] -0.027 | [10] -0.005

SLC35F2 (UniProt Q8IXU6)
inactive: [1] 0.195 | [2] 0.068 | [3] -0.037 | [4] 0.089 | [5] -0.13 | [6] -0.011 | [7] -0.042 | [8] 0.091 | [9] -0.03 | [10] -0.04

SLC2A3 (UniProt P11169)
inactive: [1] 0.02 | [2] -0.023 | [3] -0.057 | [4] 0.013 | [5] -0.037 | [6] -0.025 | [7] -0.005 | [8] 0.07 | [9] -0.005 | [10] 0.051

SLC25A40 (UniProt Q8TBP6)
inactive: [1] -0.013 | [2] -0.07 | [3] 0.002 | [4] -0.028 | [5] -0.086 | [6] -0.145 | [7] -0.026 | [8] 0.066 | [9] 0.047 | [10] -0.045

SLC29A2 (UniProt Q14542)
inactive: [1] 0.047 | [2] 0.046 | [3] -0.047 | [4] 0.007 | [5] -0.072 | [6] 0.065 | [7] 0.042 | [8] 0.076 | [9] -0.047 | [10] 0.121

SLC25A11 (UniProt Q02978)
inactive: [1] -0.003 | [2] -0.055 | [3] -0.021 | [4] -0.003 | [5] -0.095 | [6] 0.024 | [7] 0.043 | [8] 0.05 | [9] 0.045 | [10] -0.017

SLC25A22 (UniProt Q9H936)
inactive: [1] -0.044 | [2] -0.034 | [3] -0.03 | [4] -0.024 | [5] -0.016 | [6] 0.036 | [7] 0.006 | [8] 0.067 | [9] -0.023 | [10] 0.011

SLC25A25 isoform 3 (UniProt Q6KCM7)
inactive: [1] 0.001 | [2] -0.061 | [3] -0.054 | [4] -0.03 | [5] -0.093 | [6] -0.037 | [7] -0.004 | [8] 0.053 | [9] 0.01 | [10] -0.012

SLC25A6 (UniProt P12236)
inactive: [1] -0.035 | [2] -0.04 | [3] -0.038 | [4] -0.03 | [5] -0.007 | [6] 0.028 | [7] -0.003 | [8] 0.051 | [9] -0.026 | [10] 0.04

SLC43A1 (UniProt O75387)
inactive: [1] -0.037 | [2] 0.052 | [3] -0.082 | [4] -0.061 | [5] 0.005 | [6] 0.065 | [7] 0.047 | [8] 0.054 | [9] -0.045 | [10] 0.118
